Literature values as cited in US20050233970A1, “Methods for treating long QT syndrome” (priority 2004, published 2005).

System: QT interval
Details: literature (Pratt et al. 1996, 1999); cited from earlier work

CC(C)(C(=O)O)c1ccc(C(O)CCCN2CCC(C(O)(c3ccccc3)c3ccccc3)CC2)cc1 (stereo not shown) [fexofenadine]
effect on QT interval / QTc: no effect
